This note sets out measurements from publication PMC10897394.

These are yes or no findings as the source states them, for the method shown. In cells and extracts the contact can be indirect. A yes stands for co-enrichment or nearness to the bait. Other partners may have been found. Sequences can lack the tags named with a protein.

The test deals with T1, GFP-ROT4(WT) (Arabidopsis thaliana) (UniProt Q7XXN8).
T1 sequence (chain, S-acylated in plant cells, C42 the predominant S-acylation site): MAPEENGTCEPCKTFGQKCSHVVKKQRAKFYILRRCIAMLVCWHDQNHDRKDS
The test can be described thus: affinity purification with mass spectrometry; lysates of ten-day-old GFP and GFP-ROT4 overexpressing seedlings, anti-GFP Agarose, 4 °C 2 h; IP buffer 50 mM Tris-HCl pH 7.4, 150 mM NaCl, 1 mM MgCl2, 10% glycerol, 0.5% Nonidet P-40; GFP vector plants as control.

B1: BSK5 (BRASSINOSTEROID-… KINASE 5) (enzyme, UniProt Q9FIL1 1-489)
chain: MGPRCSKLSLCWWPTHLKSTHNEASDLDNGTDDLPSFTEFSFDQLRAATCGFSTDSIVSEHGVKAPNVVYKGRLEDDRWIAVKRFNRSAWPDTRQFLEEAKAVGQLRNERLANLIGFCCEGDERLLVAEFMPFETLSKHLFHWDSQPMKWSMRLRVALYLAQALEYCSSKGRALYHDLNAYRILFDQDGNPRLSCFGLMKNSRDGKSYSTNLAFTPPEYLRTGRVIPESVVYSFGTLLLDLLSGKHIPPSHALDLIRGKNFLMLMDSCLDGHFSNDDGTDLVRLASRCLQYEARERPNVKSLVSSLAPLQKETDIPSHVLMGIPHGAASPKETTSLTPLGDACSRHDLTAIHEILEKVGYKDDEGVANELSFQVWTDQIQETLNSKKQGDAAFKGKDFVTAVECYTQFIEDGTMVSPTVFARRCLCYLMSNMPQEALGDAMQAQVVSPEWPTAFYLQAAALFSLGMDKDACETLKDGTSLEAKKHNNRN
Take B1: the binding result is on record as “binds”.
